Reference: PubChem BioAssay AID248 (DTP/NCI, 2004)
The list does not hold the whole screen: it gathers tests that were run many times, whatever their T/C, doses with no T/C, and many T/C values between a quarter and a half above the control. Further doses and runs are listed elsewhere. T/C: endpoint of the treated group in % of that of the vehicle group. Some doses have a count of surviving animals in place of a T/C: the source files T/C as zero there, which appears to mark a toxic dose or a test without result, not a measured value. Some doses without a T/C left all or most animals alive at the check, yet need not have been tolerated: survival well below the control is almost never listed, so the zero probably covers shortened survival too. Counts of survivors are from the toxicity check (mostly the fifth day) where no day follows; animals may have died later. Schedule codes are those of the source, taken here to give the interval after Q, in days (D) or hours (H), and the number of doses after X. Some schedule codes hold Z or #, which are not explained here. For survival time, this PubChem deposit counts one and a half times the control or more as active, and values a quarter to a half above the control carry no call in these data; other NCI protocols may use other cut-offs. Some entries were tested several times; the results are listed from low to high. Some T/C values carry the count of animals alive at the toxicity check (mostly the fifth day); without a count, all were alive then.

Test system: L1210 leukemia ip in BDF1 mice, survival T/C
Assay: NCI In Vivo Anticancer Drug Screen. Data for tumor model L1210 Leukemia (intraperitoneal) in B6D2F1 (BDF1) mice
Settings: higher T/C = longer survival
[1] = T/C endpoint: mean survival time, dose: 12.5 mg/kg/injection, schedule: Q01DX009 (ip), vehicle: saline
[2] = T/C endpoint: mean survival time, dose: 25.0 mg/kg/injection, schedule: Q01DX009 (ip), vehicle: saline
[3] = T/C endpoint: mean survival time, dose: 50.0 mg/kg/injection, schedule: Q01DX009 (ip), vehicle: saline
[4] = T/C endpoint: mean survival time, dose: 400.0 mg/kg/injection, schedule: Q04DX003 (ip), vehicle: Klucel (hydroxypropylcellulose) (HPC)
[5] = T/C endpoint: mean survival time, dose: 200.0 mg/kg/injection, schedule: Q01DX009 (ip), vehicle: saline
[6] = T/C endpoint: mean survival time, dose: 400.0 mg/kg/injection, schedule: Q01DX001 (ip), vehicle: carboxymethylcellulose (CMC)
[7] = T/C endpoint: mean survival time, dose: 400.0 mg/kg/injection, schedule: Q01DX009 (ip), vehicle: Klucel (hydroxypropylcellulose) (HPC)
[8] = T/C endpoint: mean survival time, dose: 100.0 mg/kg/injection, schedule: Q01DX009 (ip), vehicle: saline
[9] = T/C endpoint: mean survival time, dose: 200.0 mg/kg/injection, schedule: Q04DX003 (ip), vehicle: saline
[10] = T/C endpoint: mean survival time, dose: 400.0 mg/kg/injection, schedule: Q04DX003 (ip), vehicle: saline

COCCOC1=C(N2CC2)C(=O)C(OCCOC)=C(N2CC2)C1=O
T/C (T/C endpoint: mean survival time, dose: 2.5 mg/kg/injection, schedule: Q01DX001 (ip), vehicle: saline): 128 % of control | T/C (T/C endpoint: mean survival time, dose: 5.0 mg/kg/injection, schedule: Q01DX001 (ip), vehicle: saline): 125 and 130 % of control | T/C (T/C endpoint: mean survival time, dose: 8.34 mg/kg/injection, schedule: Q01DX001 (ip), vehicle: saline): 131 % of control | T/C (T/C endpoint: mean survival time, dose: 12.5 mg/kg/injection, schedule: Q01DX001 (ip), vehicle: saline): 139 % of control | survivor count [1]: 4 of 6 | survivor count (T/C endpoint: mean survival time, dose: 16.0 mg/kg/injection, schedule: Q01DX Z (ip), vehicle: saline): 6 of 6 | survivor count (T/C endpoint: mean survival time, dose: 18.75 mg/kg/injection, schedule: Q01DX001 (ip), vehicle: saline): 0 of 6 | survivor count (T/C endpoint: mean survival time, dose: 20.0 mg/kg/injection, schedule: Q01DX001 (ip), vehicle: saline): 5 of 6 | survivor count (T/C endpoint: mean survival time, dose: 25.0 mg/kg/injection, schedule: Q01DX001 (ip), vehicle: saline): 1 of 6 | survivor count [2]: 4 of 6 | survivor count (T/C endpoint: mean survival time, dose: 40.0 mg/kg/injection, schedule: Q01DX001 (ip), vehicle: saline): 2 of 6 | survivor count (T/C endpoint: mean survival time, dose: 50.0 mg/kg/injection, schedule: Q01DX001 (ip), vehicle: saline): 1 of 6 | survivor count (T/C endpoint: mean survival time, dose: 100.0 mg/kg/injection, schedule: Q01DX001 (ip), vehicle: saline): 0 of 6

FC(F)(F)c1ccc2c(c1)N(CCCN1CCN(CCN3CCCCC3)CC1)c1ccccc1S2
survivor count [3]: 5 of 6 | survivor count (T/C endpoint: mean survival time, dose: 100.0 mg/kg/injection, schedule: Q04DX003 (ip), vehicle: saline): 1 of 6

CS(C)=O.CS(C)=O.[Cl][Sn]([Cl])([Cl])[Cl]
survivor count (T/C endpoint: mean survival time, dose: 200.0 mg/kg/injection, schedule: Q04DX003 (ip), vehicle: Klucel (hydroxypropylcellulose) (HPC)): 6 of 6 | survivor count (T/C endpoint: mean survival time, dose: 225.0 mg/kg/injection, schedule: Q01DX009 (ip), vehicle: Klucel (hydroxypropylcellulose) (HPC)): 4 of 6 | survivor count (T/C endpoint: mean survival time, dose: 335.0 mg/kg/injection, schedule: Q01DX009 (ip), vehicle: Klucel (hydroxypropylcellulose) (HPC)): 1 of 6 | survivor count [4]: 6 of 6

COCCNC(=O)N(CCOC)N=O
T/C (T/C endpoint: mean survival time, dose: 375.0 mg/kg/injection, schedule: Q01DX001 (ip), vehicle: saline): 145 % of control | survivor count (T/C endpoint: mean survival time, dose: 750.0 mg/kg/injection, schedule: Q01DX001 (ip), vehicle: saline): 1 of 6

O=CNc1ncnn1C(=S)NCc1ccccc1
survivor count [5]: 0 of 6

COc1ccc(Br)cc1CC=O
T/C [6]: 147 % of control

O=C(O)c1ccccc1C(=O)OC1CC2C=CC1C21CC1 (stereo not drawn)
T/C (T/C endpoint: mean survival time, dose: 100.0 mg/kg/injection, schedule: Q04DX003 (ip), vehicle: Klucel (hydroxypropylcellulose) (HPC)): 125 % of control [5 of 6 alive] | survivor count [7]: 0 of 6 | survivor count [4]: 1 of 6

Oc1cccc(C(c2ccccc2)c2ccccc2)c1
T/C (T/C endpoint: mean survival time, dose: 400.0 mg/kg/injection, schedule: Q01DX001 (ip), vehicle: saline with Tween-80): 127 % of control [2 of 3 alive]

CCOC(=O)C1(c2ccccc2)CCN(CC(O)COc2cc(C)ccc2C(C)C)CC1 (stereo not drawn)
survivor count (T/C endpoint: mean survival time, dose: 200.0 mg/kg/injection, schedule: Q01DX009 (ip), vehicle: Klucel (hydroxypropylcellulose) (HPC)): 1 of 6 | survivor count [7]: 0 of 6

CN(C)CCCN1c2ccccc2Sc2ccc(F)cc21
survivor count (T/C endpoint: mean survival time, dose: 50.0 mg/kg/injection, schedule: Q04DX003 (ip), vehicle: saline): 3 of 6

CNc1n[n+](-c2ccccc2)no1
survivor count [8]: 0 of 6 | survivor count [5]: 0 of 6 | survivor count [9]: 1 of 6 | survivor count [10]: 0 of 6

O=C(O)C(Oc1ccc(Cl)cc1)c1ccc(Cl)cc1 (stereo not drawn)
survivor count [4]: 3 of 6

C=CC[P+](CC)(c1ccccc1)c1ccccc1
survivor count (T/C endpoint: mean survival time, dose: 6.25 mg/kg/injection, schedule: Q01DX009 (ip), vehicle: saline): 0 of 3 | survivor count [1]: 0 of 3 | survivor count [2]: 0 of 3 | survivor count [3]: 0 of 3 | survivor count [8]: 0 of 3 | survivor count [5]: 0 of 3

O=C(C=C(C(F)(F)F)C(F)(F)F)c1ccccc1Cl
survivor count (T/C endpoint: mean survival time, dose: 100.0 mg/kg/injection, schedule: Q04DX003 (ip), vehicle: saline with Tween-80): 6 of 6 | survivor count (T/C endpoint: mean survival time, dose: 200.0 mg/kg/injection, schedule: Q04DX003 (ip), vehicle: saline with Tween-80): 3 of 6 | survivor count (T/C endpoint: mean survival time, dose: 400.0 mg/kg/injection, schedule: Q04DX003 (ip), vehicle: saline with Tween-80): 0 of 6

O=NN(CCBr)C(=O)NCCBr
T/C (T/C endpoint: mean survival time, dose: 12.0 mg/kg/injection, schedule: Q01DX Z (ip), vehicle: carboxymethylcellulose (CMC)): 130 % of control | T/C (T/C endpoint: mean survival time, dose: 25.0 mg/kg/injection, schedule: Q01DX Z (ip), vehicle: carboxymethylcellulose (CMC)): 147 % of control | T/C (T/C endpoint: mean survival time, dose: 100.0 mg/kg/injection, schedule: Q01DX001 (ip), vehicle: carboxymethylcellulose (CMC)): 127 % of control | survivor count (T/C endpoint: mean survival time, dose: 200.0 mg/kg/injection, schedule: Q01DX Z (ip), vehicle: carboxymethylcellulose (CMC)): 3 of 6 | survivor count [6]: 0 of 6 | survivor count (T/C endpoint: mean survival time, dose: 400.0 mg/kg/injection, schedule: Q01DX Z (ip), vehicle: carboxymethylcellulose (CMC)): 0 of 6 | survivor count (T/C endpoint: mean survival time, dose: 500.0 mg/kg/injection, schedule: Q01DX001 (ip), vehicle: carboxymethylcellulose (CMC)): 1 of 6 | survivor count (T/C endpoint: mean survival time, dose: 600.0 mg/kg/injection, schedule: Q01DX001 (ip), vehicle: carboxymethylcellulose (CMC)): 0 of 6 | survivor count (T/C endpoint: mean survival time, dose: 800.0 mg/kg/injection, schedule: Q01DX001 (ip), vehicle: carboxymethylcellulose (CMC)): 0 of 6 | survivor count (T/C endpoint: mean survival time, dose: 1000.0 mg/kg/injection, schedule: Q01DX001 (ip), vehicle: carboxymethylcellulose (CMC)): 0 of 6

COc1ccc2c(c1)C13CCCCC1C(C2)N(CC1(c2ccccc2)CC1)CC3 (stereo not drawn)
survivor count [7]: 0 of 6

NC(N)=Nc1ccc(-c2ccc(N=C(N)N)cc2)cc1
survivor count (T/C endpoint: mean survival time, dose: 400.0 mg/kg/injection, schedule: Q01DX Z (oral), vehicle: saline): 1 of 6

C[N+](C)(C)CCCCCC[N+](C)(C)C
survivor count [9]: 4 of 6 | survivor count [10]: 0 of 6

CC(=O)Oc1c(I)cc(I)cc1C(=O)Nc1ccc(Cl)cc1
survivor count (T/C endpoint: mean survival time, dose: 200.0 mg/kg/injection, schedule: Q01DX009 (ip), vehicle: saline with Tween-80): 3 of 3

CC(=O)Oc1ccc(/C=C/C(=O)O)cc1OC(C)=O
survivor count (T/C endpoint: mean survival time, dose: 100.0 mg/kg/injection, schedule: Q04DX002 (ip), vehicle: saline with Tween-80): 3 of 3

NCCSC1CCCCC1
survivor count (T/C endpoint: mean survival time, dose: 400.0 mg/kg/injection, schedule: Q04DX002 (ip), vehicle: saline): 0 of 3

CCCCN(C)N=Nc1ccc(CCC(=O)OCC)cc1
T/C (T/C endpoint: mean survival time, dose: 145.0 mg/kg/injection, schedule: Q01DX009 (ip), vehicle: saline with Tween-80): 138 % of control | T/C (T/C endpoint: mean survival time, dose: 177.0 mg/kg/injection, schedule: Q01DX007 (ip), vehicle: saline): 144 % of control | T/C (T/C endpoint: mean survival time, dose: 266.0 mg/kg/injection, schedule: Q01DX009 (ip), vehicle: other): 128 % of control | T/C (T/C endpoint: mean survival time, dose: 375.0 mg/kg/injection, schedule: Q01DX Z (ip), vehicle: saline): 137 % of control | survivor count (T/C endpoint: mean survival time, dose: 600.0 mg/kg/injection, schedule: Q01DX007 (ip), vehicle: saline): 1 of 6 | T/C (T/C endpoint: mean survival time, dose: 829.0 mg/kg/injection, schedule: Q01DX001 (ip), vehicle: saline with Tween-80): 135 % of control [9 of 10 alive] | T/C (T/C endpoint: median survival time, dose: 100.0 mg/kg/injection, schedule: Q01DX009 (ip), vehicle: saline): 130 % of control | T/C (T/C endpoint: median survival time, dose: 200.0 mg/kg/injection, schedule: Q01DX009 (ip), vehicle: saline): 133 % of control | T/C (T/C endpoint: median survival time, dose: 400.0 mg/kg/injection, schedule: Q01DX009 (ip), vehicle: saline): 148 % of control | T/C (T/C endpoint: median survival time, dose: 400.0 mg/kg/injection, schedule: Q04DX003 (ip), vehicle: Klucel (hydroxypropylcellulose) (HPC)): 133 % of control | survivor count (T/C endpoint: median survival time, dose: 800.0 mg/kg/injection, schedule: Q04DX003 (ip), vehicle: Klucel (hydroxypropylcellulose) (HPC)): 5 of 8 | survivor count (T/C endpoint: median survival time, dose: 1600.0 mg/kg/injection, schedule: Q04DX003 (ip), vehicle: Klucel (hydroxypropylcellulose) (HPC)): 2 of 8
